The data set in a line: general procedure: peptide synthesis; COMU/NMM (conjugation). Conditions: whole synthesis, scale 150 mg resin.

Regarding [D-Lys6(crizotinib*)]-GnRH-I, the isolated mass is on record as 33 mg.

Source of the values: PMC6888004 (International Journal of Molecular Sciences, 2019).
